Here are results for one molecule from PMC11231340, “Werner helicase interacting protein 1 contributes to G-quadruplex processing in human cells”.

Results are given in words; binding and its absence hold for the method and conditions named. Binding seen in cells or lysates may run through a third protein. Some entries that bind do so weakly or less than the wild type. Where a sequence is shown, tags or fusion partners need not be part of it.

The assay has as its target T1, V2-WRNIP1 (human Werner helicase interacting protein 1 fused to the C-terminal fragment of VENUS YFP) (human) (UniProt Q96S55).
T1 sequence: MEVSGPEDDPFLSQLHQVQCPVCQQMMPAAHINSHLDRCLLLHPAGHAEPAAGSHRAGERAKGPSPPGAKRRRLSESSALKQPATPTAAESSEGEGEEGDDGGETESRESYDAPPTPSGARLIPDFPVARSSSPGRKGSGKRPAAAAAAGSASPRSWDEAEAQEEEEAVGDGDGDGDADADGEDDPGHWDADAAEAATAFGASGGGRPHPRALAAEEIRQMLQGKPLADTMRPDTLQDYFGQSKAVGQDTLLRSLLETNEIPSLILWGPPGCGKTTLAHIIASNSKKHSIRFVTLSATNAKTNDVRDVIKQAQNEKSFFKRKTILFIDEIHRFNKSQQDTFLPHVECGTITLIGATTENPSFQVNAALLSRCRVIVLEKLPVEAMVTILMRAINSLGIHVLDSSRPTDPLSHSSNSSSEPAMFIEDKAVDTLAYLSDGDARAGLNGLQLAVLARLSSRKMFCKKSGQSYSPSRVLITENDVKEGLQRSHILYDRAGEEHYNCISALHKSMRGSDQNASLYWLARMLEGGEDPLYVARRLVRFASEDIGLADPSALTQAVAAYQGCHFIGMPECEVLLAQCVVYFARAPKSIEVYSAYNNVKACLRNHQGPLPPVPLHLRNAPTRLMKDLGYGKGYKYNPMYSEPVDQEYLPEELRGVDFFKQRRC
Description: split reporter; split VENUS protein fragment complementation in HeLa cells; V1-PIF1 and V2-WRNIP1 plasmids transfected 1:1, cells fixed 48 h after transfection, confocal microscopy; foci lost on co-transfection of shDNA against WRNIP1 or PIF1.

B1: V1-PIF1 (human PIF1 DNA helicase fused to the N-terminal fragment of VENUS YFP) (enzyme, UniProt Q9H611 1-641)
chain: MLSGIEAAAGEYEDSELRCRVAVEELSPGGQPRRRQALRTAELSLGRNERRELMLRLQAPGPAGRPRCFPLRAARLFTRFAEAGRSTLRLPAHDTPGAGAVQLLLSDCPPDRLRRFLRTLRLKLAAAPGPGPASARAQLLGPRPRDFVTISPVQPEERRLRAATRVPDTTLVKRPVEPQAGAEPSTEAPRWPLPVKRLSLPSTKPQLSEEQAAVLRAVLKGQSIFFTGSAGTGKSYLLKRILGSLPPTGTVATASTGVAACHIGGTTLHAFAGIGSGQAPLAQCVALAQRPGVRQGWLNCQRLVIDEISMVEADLFDKLEAVARAVRQQNKPFGGIQLIICGDFLQLPPVTKGSQPPRFCFQSKSWKRCVPVTLELTKVWRQADQTFISLLQAVRLGRCSDEVTRQLQATASHKVGRDGIVATRLCTHQDDVALTNERRLQELPGKVHRFEAMDSNPELASTLDAQCPVSQLLQLKLGAQVMLVKNLSVSRGLVNGARGVVVGFEAEGRGLPQVRFLCGVTEVIHADRWTVQATGGQLLSRQQLPLQLAWAMSIHKSQGMTLDCVEISLGRVFASGQAYVALSRARSLQGLRVLDFDPMAVRCDPRVLHFYATLRRGRSLSLESPDDDEAASDQENMDPIL
For the molecule B1, the binding entry was “binds”.
